Assay results as given in article PMC3817735.
The exact form of at least one protein or probe is not confirmed. Results from cells or extracts need not show a direct contact. The comparison behind a weaker result is the experiment's own reference, which may not be listed here.

Test system: Stat5 (tyrosine-phosphorylated, Prl-activated)
Experiment: EMSA
Settings: 20 mM HEPES, 1 mM EDTA, 20 mM KCl, 1 mM DTT, 2 mM MgCl2, pH not stated, room temperature 30 min, 3-4 ug whole-cell extract, native 4% TBE-PAGE, protein in an extract, label: 32P

TTCTTGGAATTGAAGGGACTT (double strand) [beta-casein promoter Stat5 response element]
binding result (5 ug recombinant S5-DBD-PA added in vitro to 10 ug Prl-stimulated lysate, 2 h): binds more weakly
binding result (Prl-stimulated lysate, supershift with anti-Stat5): binds
binding result (cells pretreated with recombinant S5-DBD-PA (1 and 2 uM, 4 h) before Prl, dose-dependent reduction): binds more weakly
binding result (intracellular lentiviral expression of S5-DBD-PA, Prl-stimulated): binds more weakly
